Assay results reported in patent publication EP0387762A2, “Medicament with positive inotropic activity, containing a synergistically active mixture consisting of a benzimidazole and a beta-blocker, its preparation and use” (Dr. Karl Thomae GmbH, priority 1989, dated 1990).

Tested on: Hunde
Conditions: dogs, after i.v. dosing (Verbindung A 0,3 mg/kg; Atenolol 0,1 mg/kg; A/Atenolol 0,3/0,1 mg/kg)

CC(C)NCC(O)COc1ccc(CC(N)=O)cc1 (centres unmarked) [Atenolol, reference compound]
LV-dP/dtmax (mmHg/s) in Ruhe (at rest): 1,88 ± 0,16 mmHg/s
LV-dP/dtmax (mmHg/s) bei maximaler Belastung im Versuch (8 km/h) (treadmill 8 km/h): 2,15 ± 0,17 mmHg/s
